Source: US5131911A, “Use of indole derivative for dyeing keratin materials, tinctorial compositions, new compounds and dyeing process” (L'Oreal, priority 1988, dated 1992)

Experiments:
[1] = dyeing of hair with copper sulphate composition, rinse, then indole composition; set-up: species or system human
[2] = dyeing of hair with composition (A), then acid sodium nitrite composition (B); set-up: species or system human; conditions: for color obtained on hair: then sodium nitrite as in Example 16

## COc1ccc(O)c2c(C)c(C)[nH]c12 [2,3-dimethyl-4-hydroxy-7-methoxyindole]
[1]; Example 14, copper sulphate 1.0 g pH 9.5, 5 min, then 1.0 g per 100 g, pH 8.5, 5 min
  color obtained on hair: olive-green hue
[1]; Example 14, copper sulphate then 1.0 g per 100 g, pH 8.5
  use of the hue obtained on hair: can be used to counter ginger tones
[2]; Example 19, 2.5 g per 100 g, pH 6
  color obtained on hair: orangish color

## COc1ccc(O)c2[nH]c(C)c(C)c12 [2,3-dimethyl-7-hydroxy-4-methoxyindole]
[1]; Example 11, copper sulphate 1.0 g pH 9.5, 5 min, then 1.0 g per 100 g, pH 8.7, 5 min
  color obtained on hair: pearly mahogany blond
[2]; Example 20, 2.0 g per 100 g, pH 5.8
  color obtained on hair: orangish yellow color

## CCOc1ccc2[nH]ccc2c1O [4-hydroxy-5-ethoxyindole, 5-ethoxy-4-hydroxyindole]
[2]; Example 17, 2.5 g per 100 g, pH 6
  color obtained on hair: light golden chestnut color

## COc1ccc2[nH]c(C)cc2c1O [4-hydroxy-5-methoxy-2-methylindole]
[1]; Example 9, copper sulphate 1.0 g pH 9.5, 5 min, then 0.5 g per 100 g, pH 10.2, 5 min
  color obtained on hair: intense blue ash-blond color

## COc1ccc2[nH]ccc2c1O [4-hydroxy-5-methoxyindole]
[1]; Example 5, copper sulphate 0.25 g pH 9.5, 5 min, then 0.62 g per 100 g, pH 8, 5 min
  color obtained on hair: intense mauve color
[2]; Example 18, 2.5 g per 100 g, pH 6
  color obtained on hair: light golden chestnut color

## COc1c(O)ccc2cc[nH]c12 [6-hydroxy-7-methoxyindole]
[1]; Example 3, copper sulphate 1.0 g pH 9.5, 5 min, then 0.83 g per 100 g, pH 8.7, 5 min
  color obtained on hair: matt ash-blond color
[2]; Example 16, 2.5 g per 100 g, pH about 5.8, 15 min, then sodium nitrite 2.5 g pH 3, 9 min
  color of the highlight obtained on hair: dark coppery mahogany
